Library screen at single concentrations

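Growth of Mycobacterium tuberculosis over 4 days (cholesterol / DPPC medium with tyloxapol); the read-out is not stated. Concentration: 50 µM. The record gives no direction; compounds that gave an IC50 in retests scored well above the rest, so higher reads as more growth inhibition. Size under these conditions: about 69,000 compounds, about 370 of them at 50% or above in at least one test.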

The filed quantity is “Percent Effect” (%). How 0% and 100% were set is not recorded. Most values in the screen are low, and negative values occur. Compounds were drawn at random from those tested, without regard to their results. Two or more numbers in one place are separate tests of the same structure; such repeats can differ widely.

structure	percent effect
Cc1ncc(C(=O)N2CCCC(n3nc(C)nc3C)C2)c(C(C)C)n1 (configuration not stated)	5.663
CNc1nc2c(s1)C(=O)CN(C(=O)[C@@H](N)Cc1cccc(OC)c1)C2	-23.58
CC(NC(=O)Cn1cc(C(N)=O)c(-c2ccccc2)n1)C1CC1 (configuration not stated)	-18.37
CC(C)OCc1noc(C2CCCOC2)n1 (configuration not stated)	-2.922
COCCO[C@H]1CCN(C(=O)c2ccno2)[C@H]1Cc1ccncc1.O=C(O)C(F)(F)F	4.13 & -17.03
CC(C)(C)c1ncc(CNCC2CCCn3ccnc32)s1 (configuration not stated)	0.5078
[H][C@]12CNC[C@@]1(C(=O)N(C)Cc1ccco1)CN(C1CCCC1)C2	-8.377
COc1ccccc1OC1CN(C(=O)c2ccc(C(C)=O)s2)C1	2.841
COc1cc2cc(C)c(SCCN3CCCC3)nc2cc1OC.Cl	33.65
CC(C)c1noc(CCCC(=O)N2CCN(Cc3ccncc3)CC2)n1	-4.353
O=C(O)C(F)(F)F.[H][C@@]12CCN(c3cccnc3)C[C@]1([H])CN(C(=O)c1ccsc1)C2	-13.74
O=C(O)C(F)(F)F.[H][C@@]12C[C@H](C(=O)NC3CC3)CN(Cc3cccc4ccccc34)[C@]1([H])CCO2	-0.5285 & -16.15
CCNc1ncc(C(=O)N(C)C(C)c2ccc3c(c2)OCCO3)cn1 (configuration not stated)	7.994
CC(C)c1nnc2n1CC(CNCc1ccsc1)CC2 (configuration not stated)	13.56
Cc1nnc(CNCC2(O)CCCN(Cc3ccc(F)c(F)c3)C2=O)[nH]1 (configuration not stated)	6.619
Cc1ccc(-c2nnc(CN3CCn4c(nnc4C4CC4)C3)o2)cc1	19.51
COc1ccc(F)c(-c2cc(C)nc(N)n2)c1	8.317 & 1.283
O=C(NCC1CCS(=O)(=O)C1)c1ccco1 (configuration not stated)	-11.13 & -2.576
OCC1(NCc2cccc(-n3cccn3)c2)CCOCC1	-7.773
Cc1cccc(NC2CCN(C(=O)Nc3ccc(F)cc3C)CC2)n1	-11.44
CC(C)C(=O)N1CCOC[C@H](Oc2ccc(C(F)(F)F)cc2)C1	-20.82
CCn1cc(NS(=O)(=O)c2ccc(F)cc2)c(C(=O)NCC(C)C)n1	-9.801
COCCCn1ccnc1-c1cnc(OC)nc1	21.45
Cc1ccc(C(=O)NCC2CCCCO2)c(=O)[nH]1 (configuration not stated)	-3.624 & -4.505
NC(=O)NC(=O)CCN1CCC(C(=O)c2cc(F)ccc2F)CC1	-13.58
CCOCCNS(=O)(=O)c1cc(C)c2nc(O)cc(C)c2c1	-36.13
Cc1ccc(OCCSCCn2nc3ccccn3c2=O)cc1	70.2
COc1cccc(-c2nc(C)c(C(=O)N[C@@H](C)C(=O)O)s2)c1	-9.194
Cc1cc(C(F)(F)F)nc(CNC(=O)CCCN2CCCCC2)n1	-21.47
CC(C)c1cc(NC(=O)CNC2CCc3nc(C(C)C)nn3C2)on1 (configuration not stated)	36.06
[H][C@@]12C[C@H](C(=O)N(C)C)[C@@]([H])(CN(S(=O)(=O)c3cccc(C)c3)C1)O2	-1.505
COCCN(C)Cc1nc(-c2cccc(F)c2F)oc1C	-6.625
CC1CCN(C(=O)c2ccn(COc3ccc(F)cc3)n2)CC1	-41.48
CSc1nccc(N2C[C@@H](CN3CCCCC3)[C@@H](CO)C2)n1	-6.049
CS(=O)(=O)Cc1ccc(C(=O)Nc2ccc3c(c2)C(=O)NC3)cc1	-16.29
O=C1CCCN1CCN1CCCC(c2ccn[nH]2)C1 (configuration not stated)	1.46
[H][C@@]12COC[C@]1([H])[C@@H](OCc1ccccn1)CN2C(=O)c1ccnnc1	8.192
CCn1cc(NC(=O)NCc2ccc3c(c2)OCCO3)cn1	-11.67
CC(C)n1cnc2c1C(C(=O)N(C)C)N(Cc1ccccc1)CC2.O=C(O)C(F)(F)F (configuration not stated)	-1.546
Cn1nc(C2CCCN(Cc3ccsc3)C2)c2nccnc21 (configuration not stated)	-11.24
Cc1cc(NC(=O)c2ccc(-n3ncc(C#N)c3N)cc2)n(C)n1	-8.225
O=C(NCCC1CCN(CC(F)(F)F)CC1)C1CCCO1 (configuration not stated)	8.867
CN1[C@@H](c2ccccc2)[C@@H](C(=O)NCC2CCOCC2)C[C@@]1(C)C(=O)O	-7.374
CCOc1ccc(NC(=O)c2oc(CC)cc2C)cc1CO	13.11
COC(=O)CCNC(=O)C1CC(=O)N(C2CCCC2)C1 (configuration not stated)	-1.154 & 3.835
COc1ccccc1CC1CCCN(CCC#N)C1 (configuration not stated)	-4.095
N#Cc1ccc(CN2CCNC(=O)C2c2cccs2)cc1 (configuration not stated)	-14.64
CC(Oc1cc(Cl)cc(Cl)c1)C(=O)NCCS(N)(=O)=O (configuration not stated)	-27.64
CC(C)(C)c1ncc2c(n1)CN(c1cc(NCCO)nc(N)n1)C2	-9.075
COc1ncccc1NC(=O)N1CCC(C(=O)NC(C)C)CC1	10.49
CCOc1ccc(NC(=O)CN2CCN(c3nccn3C)CC2)cc1	22.01
Cc1nn(C)c(Cl)c1S(=O)(=O)N(C)c1ccc(Cl)cn1	17.77
COc1coc(CN2CCCC(CCc3ccccc3F)C2)cc1=O (configuration not stated)	44.76
O=C(CCCNC(=O)c1cnccn1)Nc1ncc[nH]1	-8.058
CCn1ncc(-c2cc(C(F)(F)F)nc(N3CCC(N)CC3)n2)c1C	22.77
Cc1cnn(CC2CCCN2Cc2cc(=O)n3cccc(C)c3n2)c1 (configuration not stated)	-2.247
N#CC1(NC(=O)Cn2nnc(-c3cc4ccccc4o3)n2)CCCC1	-29.51
CCOc1ncccc1NC(=O)N1CCC(CN2CCOCC2)CC1	-11.83
O=C1NC2(CCCN(C(=O)CCn3cncn3)C2)Oc2ccccc21 (configuration not stated)	0.337 & -1.921
CN1CCN(C)C2(CCN(C(=O)CC(F)(F)F)CC2)C1=O	-11.37
CC(C(=O)NC(N)=O)N1CCN(c2ccc(C#N)cc2F)CC1 (configuration not stated)	-5.048
CC(=O)c1ccc(NC(=O)C(C)Cn2cc(Br)cn2)cc1 (configuration not stated)	-10.59
CCNC(=O)[C@@H]1CCCN1C1(C(=O)NC)CCCCC1.Cl	-8.78
Cc1oncc1C(=O)N1CCC2(CC1)CN(S(C)(=O)=O)c1ccccc12	-2.802
O=C(Cc1ccccn1)N1CCCC(c2nccn2CC2CCC2)C1 (configuration not stated)	-4.612
CCc1nc(C2CCCN(C(=O)NC3CC3)C2)no1 (configuration not stated)	6.179
Cc1cnn(CC2CN(CC(=O)N(C)c3nccs3)CCO2)c1 (configuration not stated)	4.458
CN(C)CC(=O)N1CCC2(CC1)CN(c1ccsc1)C(=O)CO2.O=C(O)C(F)(F)F	-1.723
CN(C)C(=O)NC1COC2(CCN(Cc3nccn3C)CC2)C1 (configuration not stated)	1.006
CN(C)Cc1noc2c1CN(C(=O)c1ccncc1)CC2.O=C(O)C(F)(F)F.O=C(O)C(F)(F)F	-21.73
Cl.N#Cc1cnc2ccccc2c1N1CCN(CCC(=O)O)CC1	-17.5
Cc1cc(=O)c(C(=O)N2CCN(C)c3ccccc3C2)c[nH]1	-27.81
O=C(c1ccno1)N1CCCC(c2ncncc2-c2ccncc2)C1 (configuration not stated)	69.39
CC1(c2ccccc2)CCC(=O)N(CCCN2CCOCC2)C1 (configuration not stated)	-8.299
CCOCC(=O)N1CCc2c(CN(C)C)nn(C(C)C)c2C1.O=C(O)C(F)(F)F	1.358
CCc1nc(C2CCCN(C(=O)c3ccccc3F)C2)no1 (configuration not stated)	17.11
CN1C(=O)C2(CCN(c3nccc4occc34)CC2)c2ccccc21	-20.38
CN(C)CC1(O)CCN(S(=O)(=O)c2ccc(F)cc2)C1 (configuration not stated)	-27.11
COc1ccc2[nH]cc(C3CCN(CCC(N)=O)CC3)c2c1	-1.091
Cc1ccc(C2CN(CCCS(=O)(=O)C(C)C)CCO2)c(C)c1 (configuration not stated)	-0.6091
CC(NC(=O)COc1nc(C(C)(C)C)no1)c1ccco1 (configuration not stated)	22.88
COc1ccccc1C1CCCN1CC(=O)N1CCC(C(N)=O)CC1 (configuration not stated)	-21.69
C[C@@H]1CN(C2(C(=O)N3CCCCCC3)Cc3ccccc3C2)C[C@H](C)O1	3.737
COCCN1C[C@@H](c2ccccc2)[C@@]2(CCN(CC(=O)N(C)C)C2=O)C1.O=C(O)C(F)(F)F	-4.595
O=C(O)C(F)(F)F.O=C(O)C(F)(F)F.[H][C@@]12CN(Cc3nccs3)CCC[C@]1(C(=O)OCC)CN(C(C)C)C2	4.265 & -14.7

The first 10 entries again:

Cc1ncc(C(=O)N2CCCC(n3nc(C)nc3C)C2)c(C(C)C)n1 (configuration not stated) gave 5.663%.
CNc1nc2c(s1)C(=O)CN(C(=O)[C@@H](N)Cc1cccc(OC)c1)C2 gave -23.58%.
CC(NC(=O)Cn1cc(C(N)=O)c(-c2ccccc2)n1)C1CC1 (configuration not stated) gave -18.37%.
CC(C)OCc1noc(C2CCCOC2)n1 (configuration not stated) gave -2.922%.
COCCO[C@H]1CCN(C(=O)c2ccno2)[C@H]1Cc1ccncc1.O=C(O)C(F)(F)F gave 4.13% & -17.03%.
CC(C)(C)c1ncc(CNCC2CCCn3ccnc32)s1 (configuration not stated) gave 0.5078%.
[H][C@]12CNC[C@@]1(C(=O)N(C)Cc1ccco1)CN(C1CCCC1)C2 gave -8.377%.
COc1ccccc1OC1CN(C(=O)c2ccc(C(C)=O)s2)C1 gave 2.841%.
COc1cc2cc(C)c(SCCN3CCCC3)nc2cc1OC.Cl gave 33.65%.
CC(C)c1noc(CCCC(=O)N2CCN(Cc3ccncc3)CC2)n1 gave -4.353%.

From ChEMBL document CHEMBL3988442, “University of Dundee, Small-Polar-MMV Screening Library” (2021).